# Results of single-concentration screens

Sequences of proteins named here, by UniProt entry; tags and fusion partners are left off.
UniProt P9WPC5, whole entry: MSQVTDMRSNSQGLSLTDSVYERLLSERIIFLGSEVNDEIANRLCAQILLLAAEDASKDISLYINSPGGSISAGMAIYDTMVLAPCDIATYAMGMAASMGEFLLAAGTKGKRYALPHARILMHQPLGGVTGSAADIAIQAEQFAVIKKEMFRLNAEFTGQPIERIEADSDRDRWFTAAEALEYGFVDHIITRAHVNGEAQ
UniProt P9WPC3, whole entry partner: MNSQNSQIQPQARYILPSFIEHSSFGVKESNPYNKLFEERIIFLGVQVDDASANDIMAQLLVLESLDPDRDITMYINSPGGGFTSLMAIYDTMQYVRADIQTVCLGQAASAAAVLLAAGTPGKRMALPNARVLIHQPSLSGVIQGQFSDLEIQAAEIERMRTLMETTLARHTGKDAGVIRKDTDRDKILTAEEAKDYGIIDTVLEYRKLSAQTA
UniProt I6X8D2, whole entry: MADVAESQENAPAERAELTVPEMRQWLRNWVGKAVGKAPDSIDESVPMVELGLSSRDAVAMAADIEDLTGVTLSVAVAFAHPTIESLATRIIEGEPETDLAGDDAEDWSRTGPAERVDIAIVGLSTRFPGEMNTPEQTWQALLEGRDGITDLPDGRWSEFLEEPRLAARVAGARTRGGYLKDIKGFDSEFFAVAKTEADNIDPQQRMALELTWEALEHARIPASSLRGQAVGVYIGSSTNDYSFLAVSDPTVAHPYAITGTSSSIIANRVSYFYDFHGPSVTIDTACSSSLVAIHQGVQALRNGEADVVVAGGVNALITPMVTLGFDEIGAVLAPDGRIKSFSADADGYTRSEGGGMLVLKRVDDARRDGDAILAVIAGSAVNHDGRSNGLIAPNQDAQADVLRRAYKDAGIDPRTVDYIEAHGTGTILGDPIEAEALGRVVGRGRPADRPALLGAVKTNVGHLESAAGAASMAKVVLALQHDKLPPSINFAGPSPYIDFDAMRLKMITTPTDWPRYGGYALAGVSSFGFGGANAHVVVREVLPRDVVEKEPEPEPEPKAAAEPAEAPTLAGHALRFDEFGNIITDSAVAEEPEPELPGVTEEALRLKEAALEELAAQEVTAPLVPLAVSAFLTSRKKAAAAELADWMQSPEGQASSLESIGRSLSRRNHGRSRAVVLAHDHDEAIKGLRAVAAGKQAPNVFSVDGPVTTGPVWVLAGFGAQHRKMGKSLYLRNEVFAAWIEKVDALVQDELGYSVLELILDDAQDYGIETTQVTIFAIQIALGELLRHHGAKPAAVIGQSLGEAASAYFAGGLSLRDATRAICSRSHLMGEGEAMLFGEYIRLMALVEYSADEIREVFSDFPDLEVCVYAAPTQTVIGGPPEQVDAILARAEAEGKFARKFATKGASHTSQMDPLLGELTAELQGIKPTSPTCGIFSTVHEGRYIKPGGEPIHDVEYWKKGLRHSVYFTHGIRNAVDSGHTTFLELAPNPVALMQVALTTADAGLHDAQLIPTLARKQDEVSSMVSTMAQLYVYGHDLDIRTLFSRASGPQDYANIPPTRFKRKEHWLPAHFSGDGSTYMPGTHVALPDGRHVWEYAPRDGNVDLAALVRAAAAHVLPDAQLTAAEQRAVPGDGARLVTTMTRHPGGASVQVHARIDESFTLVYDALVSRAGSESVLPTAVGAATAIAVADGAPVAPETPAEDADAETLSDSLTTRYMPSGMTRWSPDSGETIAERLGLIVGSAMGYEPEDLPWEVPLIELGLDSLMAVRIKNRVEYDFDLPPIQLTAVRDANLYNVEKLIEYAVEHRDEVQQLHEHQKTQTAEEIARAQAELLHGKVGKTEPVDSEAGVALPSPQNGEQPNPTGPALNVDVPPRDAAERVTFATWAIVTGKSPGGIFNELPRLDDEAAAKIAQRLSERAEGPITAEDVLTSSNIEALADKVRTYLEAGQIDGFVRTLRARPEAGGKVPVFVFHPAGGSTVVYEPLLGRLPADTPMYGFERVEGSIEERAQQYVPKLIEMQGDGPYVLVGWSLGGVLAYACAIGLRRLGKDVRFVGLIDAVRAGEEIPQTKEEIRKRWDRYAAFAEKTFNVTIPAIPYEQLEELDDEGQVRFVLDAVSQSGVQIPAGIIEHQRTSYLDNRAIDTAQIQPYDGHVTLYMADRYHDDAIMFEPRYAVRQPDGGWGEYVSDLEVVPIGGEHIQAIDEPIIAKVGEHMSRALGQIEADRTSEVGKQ

A: 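ClpP1P2, Mycobacterium tuberculosis (UniProt P9WPC5 and UniProt P9WPC3). Protease assay of ClpP1P2, read by the AMC dye that it sets free. Compounds at 50 µM. Higher reads as stronger inhibition, judged from the few compounds that gave an IC50. Most other retested compounds had strongly negative values. Of about 69,000 compounds tested this way, about 10 (0.015%) reached 50% or more in at least one test.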
B: 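Enzyme assay of the thioesterase domain of polyketide synthase 13; the read-out is not stated. Target: Polyketide synthase Pks13, Mycobacterium tuberculosis (UniProt I6X8D2). Tested at 30 µM. The record gives no direction; the compounds picked for IC50 retests had high values, so higher reads as stronger inhibition. Size under these conditions: about 67,000 compounds, about 300 of them at 50% or above in at least one test.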

Each number is a percent effect as filed.
How 0% and 100% were set is not recorded. Most values in the screen are low, and negative values occur.
This is an unselected part of the compounds tested.

{"compound": "CCc1nc(C)ncc1C(=O)N1CC(=O)N(C)c2ccccc21", "A": -8.303, "B": -24.33}
{"compound": "Cc1ccsc1C(=O)N1CCC2(CC1)C(=O)N(C)CCN2CC1CC1", "A": 1.828, "B": -8.244}
{"compound": "O=C(Cn1ccc2sccc2c1=O)NCc1ccc(F)cc1", "A": -11.66, "B": 1.916}
{"compound": "Nc1nnc(SCC(=O)c2cc3c(cc2Cl)NC(=O)C3)s1", "A": -11.92, "B": 0.6804}
{"compound": "CC(C)C[C@H](N)COc1cccc(F)c1Oc1ccc(Cl)cc1", "A": -25.89, "B": 17.3}
{"compound": "CCc1ccccc1OCCN1CCC(NS(C)(=O)=O)CC1", "A": -4.956, "B": -5.947}
{"compound": "Cc1ncsc1CN1CC[C@H]2OCC[C@@]2(C(=O)NCC2CC2)C1", "A": 8.096, "B": 0.5255}
{"compound": "Cc1ccc(CN(CCN(C)C)Cc2nc3ccccc3[nH]2)s1", "A": -15.43, "B": -22.5}
{"compound": "Cn1nc2c(cc1=O)CN(CC(=O)Nc1ccc(Cl)cn1)CC2", "A": -2.858, "B": 12.47}
{"compound": "Cc1nc(CN(C)C2CCN(Cc3ccc4ccccc4n3)C2)no1", "stereo": "stereo not given", "A": 9.472, "B": -7.065}
{"compound": "COc1ccc(CN2CCn3cc(CN4CCCCC4)nc3C2)cc1", "A": -13.39, "B": -16.59}
{"compound": "CC(C)n1ncc2c1NC(=O)CC21C(=O)Nc2cc(Cl)cc(Cl)c21", "stereo": "stereo not given", "A": -5.686, "B": -13.5}
{"compound": "O=C(c1cnc2ccccn12)N1CCCC(c2ccn[nH]2)C1", "stereo": "stereo not given", "A": -0.7035, "B": -4.607}
{"compound": "Cc1oncc1C(=O)NCC1(O)CCc2ccccc2C1", "stereo": "stereo not given", "A": -10.22, "B": 1.64}
{"compound": "CC(C)c1nn(C)c(N2CCOCC2)c1CNC(C)c1ccccn1", "stereo": "stereo not given", "A": -15.12, "B": -10.99}
{"compound": "CSC(C)(C)CNC(=O)Nc1cccc(-c2nccn2C)c1", "A": -0.1068, "B": -17.41}
{"compound": "O=C(CCNS(=O)(=O)c1ccccc1)N1CCOC(c2ccccc2)C1", "stereo": "stereo not given", "A": 2.531, "B": -37.91}
{"compound": "CC(C)NC(=O)c1ccc2nnc(C3CCN(S(C)(=O)=O)C3)n2c1", "stereo": "stereo not given", "A": 9.11, "B": -5.317}
{"compound": "Cc1noc(C)c1C1CCCN1C(=O)CN1CC2(CCNCC2)OC1=O", "stereo": "stereo not given", "A": -6.447, "B": -21.49}
{"compound": "O=C(NCCC1=CCCCC1)NC1CCCc2c1cnn2CCO", "stereo": "stereo not given", "A": 6.32, "B": -13.99}
{"compound": "CCC(=O)NCc1ccc(N2CCCCC2)cc1", "A": -10.69, "B": -0.9122}
{"compound": "CC(C(=O)Nc1ncccn1)N1CCCN(c2nccs2)CC1", "stereo": "stereo not given", "A": 12.33, "B": -1.508}
{"compound": "COCc1csc(NC(=O)NCc2ncccc2C)n1", "A": 2.6, "B": 17.38}
{"compound": "CC(C)OC(=O)N1CCC(c2nnc(Cn3ccnc3)n2C)CC1", "A": -7.088, "B": -12.86}
{"compound": "Cc1cc(C(=O)N2CCCN(Cc3nccn3C)CC2)no1", "A": -27.07, "B": -7.854}
{"compound": "CCc1noc(CN(CCC2CCCCC2)CC(N)=O)n1", "A": -4.878, "B": 6.763}
{"compound": "Cc1ccc(C(=O)N2C[C@@H]3CC[C@H](C2)N(CC2CCC2)C3)s1", "A": 5.699, "B": -4.659}
{"compound": "CC(=O)N1CCC2(CCCN(C(=O)c3ccc(Cl)c(C(F)(F)F)c3)C2)C1", "stereo": "stereo not given", "A": 3.688, "B": -11.15}
{"compound": "CS(=O)(=O)N1CCC(c2nccn2Cc2ccccn2)CC1", "A": 5.387, "B": -45.17}
{"compound": "Cn1cc(S(=O)(=O)NCc2ccc(F)cc2)cn1", "A": -11.69, "B": -5.712}
{"compound": "NC(=O)C1CCN(c2nc3nccc(-c4cccnc4)c3c(=O)[nH]2)CC1", "A": -100.1, "B": 3.983}
{"compound": "COc1cc(C)nc(N2CCN(C(=O)CCn3cc(C)cn3)CC2)n1", "A": -9.652, "B": -24.15}
{"compound": "CC(=O)N1CCCn2nc(CNS(=O)(=O)N3CCC(C)CC3)cc2C1", "A": -4.79, "B": -13.07}
{"compound": "Cc1nn2cnnc2c(C)c1CCC(=O)Nc1nnc(C2CC2)s1", "A": 12.82, "B": -25.5}
{"compound": "O=C(CCc1cc(O)no1)N1CCCC(COc2ccccc2F)C1", "stereo": "stereo not given", "A": -9.706, "B": -26.17}

Some entries from above, unchanged:

| compound | A | B |
|---|---|---|
| `Cn1cc(S(=O)(=O)NCc2ccc(F)cc2)cn1` | -11.69 | -5.712 |
| `COc1ccc(CN2CCn3cc(CN4CCCCC4)nc3C2)cc1` | -13.39 | -16.59 |
| `Cc1ccc(CN(CCN(C)C)Cc2nc3ccccc3[nH]2)s1` | -15.43 | -22.5 |

From ChEMBL document CHEMBL3988442, “University of Dundee, Small-Polar-MMV Screening Library” (2021).